Data on five substances can be found in paper PMC10205607, “MAP4K3 inhibits Sirtuin-1 to repress the LKB1–AMPK pathway to promote amino acid-dependent activation of the mTORC1 complex” (Life Science Alliance, 2023).

Chains of the proteins cited; added tags and fusions are not shown. Lines headed by an entry give the natural chain unless they say otherwise; changes in a name come on top.
UniProt Q8IVH8: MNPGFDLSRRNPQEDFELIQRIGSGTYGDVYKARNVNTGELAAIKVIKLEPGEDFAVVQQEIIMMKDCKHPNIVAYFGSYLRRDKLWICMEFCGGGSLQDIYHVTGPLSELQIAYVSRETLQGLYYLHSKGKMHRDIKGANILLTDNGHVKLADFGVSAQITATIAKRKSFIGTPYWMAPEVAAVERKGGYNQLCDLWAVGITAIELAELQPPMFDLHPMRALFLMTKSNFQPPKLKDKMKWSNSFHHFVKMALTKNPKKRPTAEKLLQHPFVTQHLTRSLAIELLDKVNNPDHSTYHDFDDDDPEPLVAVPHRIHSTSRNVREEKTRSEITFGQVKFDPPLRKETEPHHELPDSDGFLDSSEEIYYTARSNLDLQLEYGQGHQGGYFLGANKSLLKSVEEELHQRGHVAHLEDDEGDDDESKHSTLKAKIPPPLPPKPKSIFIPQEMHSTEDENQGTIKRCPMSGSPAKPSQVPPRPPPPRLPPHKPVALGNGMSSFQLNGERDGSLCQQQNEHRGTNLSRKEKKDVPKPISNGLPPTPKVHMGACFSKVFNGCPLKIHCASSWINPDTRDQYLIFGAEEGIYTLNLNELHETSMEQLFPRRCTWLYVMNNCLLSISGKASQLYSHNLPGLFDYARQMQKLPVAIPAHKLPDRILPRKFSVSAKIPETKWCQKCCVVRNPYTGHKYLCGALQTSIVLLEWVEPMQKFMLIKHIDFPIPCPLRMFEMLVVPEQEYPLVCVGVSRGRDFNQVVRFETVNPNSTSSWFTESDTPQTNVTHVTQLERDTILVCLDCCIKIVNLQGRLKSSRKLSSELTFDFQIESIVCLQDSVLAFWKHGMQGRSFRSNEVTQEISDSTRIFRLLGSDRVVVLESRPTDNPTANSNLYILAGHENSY
UniProt Q96EB6: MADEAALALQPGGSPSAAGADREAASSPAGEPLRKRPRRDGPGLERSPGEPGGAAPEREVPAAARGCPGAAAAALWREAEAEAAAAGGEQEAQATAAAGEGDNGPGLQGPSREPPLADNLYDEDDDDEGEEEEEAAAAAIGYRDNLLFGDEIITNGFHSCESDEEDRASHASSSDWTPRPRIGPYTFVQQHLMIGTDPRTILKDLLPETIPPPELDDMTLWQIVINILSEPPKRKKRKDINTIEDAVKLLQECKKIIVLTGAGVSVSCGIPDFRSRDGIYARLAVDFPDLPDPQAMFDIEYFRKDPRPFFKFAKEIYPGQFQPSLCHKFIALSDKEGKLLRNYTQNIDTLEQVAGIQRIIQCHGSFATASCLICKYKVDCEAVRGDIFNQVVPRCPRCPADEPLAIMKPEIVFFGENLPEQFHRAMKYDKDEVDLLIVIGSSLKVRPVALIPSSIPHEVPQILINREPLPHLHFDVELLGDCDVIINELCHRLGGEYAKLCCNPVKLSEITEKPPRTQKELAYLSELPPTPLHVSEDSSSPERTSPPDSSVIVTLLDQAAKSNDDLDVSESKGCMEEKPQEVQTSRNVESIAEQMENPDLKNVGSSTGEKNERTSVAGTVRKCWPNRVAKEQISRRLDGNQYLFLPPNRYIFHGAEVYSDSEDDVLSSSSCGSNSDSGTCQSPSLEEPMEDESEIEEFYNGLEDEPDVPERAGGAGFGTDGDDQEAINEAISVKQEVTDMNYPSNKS

The target of the assay is kinase dead (KD)-MAP4K3-FLAG (UniProt Q8IVH8). Kind of assay: co-IP; anti-FLAG IP from lysates of co-transfected HEK293A cells (WT or MAP4K3 k.o.), blot with anti-HA and anti-FLAG; lysis buffer 25 mM HEPES-KOH pH 7.4, 150 mM NaCl, 5 mM EDTA, 1% Triton X-100; 2 h at 4°C.

These are yes or no findings as the source states them, for the method shown. Binding seen in cells or lysates may run through a third protein. Binding can be weak; no strength is given.

Regarding “SIRT1:1–114 (HA-tagged) (from UniProt Q96EB6 1-114) (domain or fragment)”, the binding entry was “no binding”. “SIRT1:1–465 (HA-tagged) (from UniProt Q96EB6 1-465) (domain or fragment)”: the binding result is given as “binds”.

Regarding “SIRT1:1–698 (HA-tagged) (from UniProt Q96EB6 1-698) (domain or fragment)”, the binding result is “binds”. Regarding “SIRT1:142–747 (HA-tagged) (from UniProt Q96EB6 142-747) (domain or fragment)”, the binding entry is “binds”. For the substance “SIRT1:465–747 (HA-tagged) (from UniProt Q96EB6 465-747) (domain or fragment)”, the binding result was “no binding”.
